Paper PMC7242910
Results are given in words; binding and its absence hold for the method and conditions named. Binding seen in cells or lysates may run through a third protein. Some entries that bind do so weakly or less than the wild type.

By UniProt entry, the sequences of proteins in these tests, tags left out. Where a name states a change or a piece, a line headed by the entry shows the natural chain unless it says otherwise.
UniProt P21951: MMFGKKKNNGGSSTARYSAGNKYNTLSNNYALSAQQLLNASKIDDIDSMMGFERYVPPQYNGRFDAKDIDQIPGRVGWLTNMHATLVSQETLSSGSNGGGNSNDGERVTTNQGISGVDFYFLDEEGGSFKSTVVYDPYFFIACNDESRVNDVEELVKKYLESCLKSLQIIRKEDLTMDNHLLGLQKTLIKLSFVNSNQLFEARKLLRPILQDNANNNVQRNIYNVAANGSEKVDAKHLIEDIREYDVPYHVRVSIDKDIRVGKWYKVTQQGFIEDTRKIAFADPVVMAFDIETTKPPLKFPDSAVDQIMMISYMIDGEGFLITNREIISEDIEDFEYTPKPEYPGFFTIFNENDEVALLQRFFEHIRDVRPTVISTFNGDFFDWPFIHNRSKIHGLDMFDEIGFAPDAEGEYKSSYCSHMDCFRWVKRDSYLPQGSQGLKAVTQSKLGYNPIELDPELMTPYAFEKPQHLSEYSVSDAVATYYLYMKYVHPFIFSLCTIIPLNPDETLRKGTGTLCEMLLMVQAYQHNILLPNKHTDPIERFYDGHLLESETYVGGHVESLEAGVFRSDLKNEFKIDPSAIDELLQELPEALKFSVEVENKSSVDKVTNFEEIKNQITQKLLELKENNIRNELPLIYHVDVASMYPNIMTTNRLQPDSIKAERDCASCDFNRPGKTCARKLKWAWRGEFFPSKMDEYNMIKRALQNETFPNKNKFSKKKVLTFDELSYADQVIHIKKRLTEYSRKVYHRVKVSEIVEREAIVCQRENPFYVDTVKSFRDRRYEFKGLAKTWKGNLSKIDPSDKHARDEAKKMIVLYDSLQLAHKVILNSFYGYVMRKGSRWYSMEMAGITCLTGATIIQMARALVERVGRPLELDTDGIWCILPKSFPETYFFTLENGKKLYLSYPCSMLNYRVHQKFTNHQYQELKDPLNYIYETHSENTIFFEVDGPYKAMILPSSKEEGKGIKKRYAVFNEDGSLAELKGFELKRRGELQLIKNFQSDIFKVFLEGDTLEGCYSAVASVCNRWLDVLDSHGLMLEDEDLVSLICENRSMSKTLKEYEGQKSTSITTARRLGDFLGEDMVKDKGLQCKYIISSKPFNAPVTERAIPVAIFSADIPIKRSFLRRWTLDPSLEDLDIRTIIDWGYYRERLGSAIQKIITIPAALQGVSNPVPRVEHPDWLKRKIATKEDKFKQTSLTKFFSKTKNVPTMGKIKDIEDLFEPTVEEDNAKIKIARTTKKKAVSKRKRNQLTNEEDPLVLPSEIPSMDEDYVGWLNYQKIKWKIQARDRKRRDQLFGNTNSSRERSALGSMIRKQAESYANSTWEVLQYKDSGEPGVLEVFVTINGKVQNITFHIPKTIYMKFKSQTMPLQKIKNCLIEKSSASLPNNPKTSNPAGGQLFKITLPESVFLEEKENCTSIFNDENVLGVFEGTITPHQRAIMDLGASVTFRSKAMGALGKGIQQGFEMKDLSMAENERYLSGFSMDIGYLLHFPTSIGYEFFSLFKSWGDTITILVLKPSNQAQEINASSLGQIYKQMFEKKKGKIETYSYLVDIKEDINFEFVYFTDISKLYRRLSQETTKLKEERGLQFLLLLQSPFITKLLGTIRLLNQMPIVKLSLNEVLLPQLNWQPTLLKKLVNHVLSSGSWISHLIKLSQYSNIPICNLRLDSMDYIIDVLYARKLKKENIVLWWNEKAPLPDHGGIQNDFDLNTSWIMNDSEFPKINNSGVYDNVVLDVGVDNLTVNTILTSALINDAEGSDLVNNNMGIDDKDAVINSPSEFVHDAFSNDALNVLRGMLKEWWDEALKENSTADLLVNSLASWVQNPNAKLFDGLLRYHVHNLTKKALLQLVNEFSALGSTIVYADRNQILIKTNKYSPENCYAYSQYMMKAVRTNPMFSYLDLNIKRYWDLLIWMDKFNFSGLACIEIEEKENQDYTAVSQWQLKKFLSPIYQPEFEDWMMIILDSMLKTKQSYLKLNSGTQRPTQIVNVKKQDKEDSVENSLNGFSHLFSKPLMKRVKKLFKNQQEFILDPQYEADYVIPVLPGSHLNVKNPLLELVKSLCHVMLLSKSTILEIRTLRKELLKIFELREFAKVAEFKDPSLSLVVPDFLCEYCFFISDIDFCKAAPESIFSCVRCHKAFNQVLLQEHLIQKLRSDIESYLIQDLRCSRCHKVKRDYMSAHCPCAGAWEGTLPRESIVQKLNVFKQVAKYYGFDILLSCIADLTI
UniProt P49956: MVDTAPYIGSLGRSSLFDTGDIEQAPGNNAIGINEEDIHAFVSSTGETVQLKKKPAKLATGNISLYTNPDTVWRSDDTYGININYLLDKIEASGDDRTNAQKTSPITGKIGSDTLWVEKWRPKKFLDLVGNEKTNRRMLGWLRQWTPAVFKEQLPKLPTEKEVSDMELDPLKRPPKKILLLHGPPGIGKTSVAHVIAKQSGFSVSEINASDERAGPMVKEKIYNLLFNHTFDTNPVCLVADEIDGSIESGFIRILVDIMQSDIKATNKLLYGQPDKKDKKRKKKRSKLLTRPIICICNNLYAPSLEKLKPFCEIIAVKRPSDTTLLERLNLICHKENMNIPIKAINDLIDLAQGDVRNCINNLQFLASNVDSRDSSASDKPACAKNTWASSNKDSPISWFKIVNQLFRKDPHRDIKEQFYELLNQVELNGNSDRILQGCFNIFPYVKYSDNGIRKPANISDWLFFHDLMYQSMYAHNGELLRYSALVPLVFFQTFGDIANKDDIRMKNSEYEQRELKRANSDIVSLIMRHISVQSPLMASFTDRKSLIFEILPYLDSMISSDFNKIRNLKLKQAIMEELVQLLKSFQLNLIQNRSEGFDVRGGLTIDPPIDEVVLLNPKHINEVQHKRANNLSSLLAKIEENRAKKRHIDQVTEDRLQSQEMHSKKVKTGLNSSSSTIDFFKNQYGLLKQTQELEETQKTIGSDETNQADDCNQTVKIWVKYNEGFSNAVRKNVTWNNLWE

Target: Pol2, large subunit of DNA polymerase ε (S. cerevisiae) (UniProt P21951)
Test: co-IP; yeast cell extracts in 50 mM Tris-HCl pH 7.5, 150 mM NaCl, 0.1% Triton X-100, protease inhibitors and benzonase; IgG coated Dynabeads (Protein A pulldown) or Protein A Dynabeads with epitope-specific antibody

Ctf18-RFC complex (from UniProt P49956 1-741; P38877 1-133; P25559 1-380; P40348 1-353; P38629 1-340; P40339 1-323; P38251 1-354)
binding: binds
